As usually defined, the AC50 is the midpoint of the concentration-response curve, whichever way the signal moves. A lower AC50 goes with activity at low concentration.

The values below come from PubChem BioAssay AID2685 (National Center for Advancing Translational Sciences (NCATS), 2010).

The structures appear in SMILES notation. The list shows a part of the results. Further columns of the screen follow, without active or inactive calls. Compounds called inactive in the main read-out are mostly missing here. Words in brackets tell the shape of the fitted curve; partial curves, single points and poor fits give uncertain potencies.

This assay can be described thus: qHTS Assay for Lipid Storage Modulators in Drosophila S3 Cells.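 As to cell number change: cells counted by Cell Tracker Red CMTPX staining in the red channel.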 To be noted: BODIPY lipid droplet fluorescence, 18-24 h; for cell number change: measured here: cell count max response, cells fed with added oleic acid. An outline of the steps: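 Drosophila S3 cells loaded with oleic acid (400 uM, as added) and compounds at several concentrations; lipid droplets imaged by 488-nm laser-scanning cytometry, 500–530 nm intensity and object ratio to cell channel. Percent activity normalized to 20 uM Triacsin C.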

The mark [1] stands for this setting: measured here: cell number channel AC50, cells fed with added oleic acid.
Where [2] appears, read: measured here: lipid fluorescence (Fed channel) AC50, cells fed with added oleic acid.

For the compound `COc1ccc(C(=O)N=C2SC3CS(=O)(=O)CC3N2Cc2ccc(F)cc2)cc1` (configuration not stated), the cell number change was 89.3%. Further, the AC50 under setting [1] is 29.1 µM [rising, single point]. The AC50 under setting [2] is 29.1 µM [falling, single point]. Regarding `Cc1ccc(-c2c(C(=O)NNC(=S)NCC3CCCO3)csc2C)cc1` (configuration not stated), the cell number change is -7.01%. Also, the AC50 under setting [1] is 0.461 µM [rising, partial curve, poor fit].

`CCOc1ccc(N(CC(=O)NC2CCCCC2)S(=O)(=O)c2ccccc2)cc1`: the cell number change is -7.94%. In addition, the AC50 under setting [1] is 0.164 µM [falling, full curve, poor fit]. `CCc1ccc(CCC(=O)Nc2nnc(CC)s2)o1`: the cell number change is -19%. For the same compound, the AC50 under setting [2] was 0.00517 µM [falling, full curve, poor fit].

As to `O=C(NCc1cccnc1)C1CCN(S(=O)(=O)N2CCC3(CC2)OCCO3)CC1`, the cell number change was determined as 16.4%. The AC50 under setting [2] is 29.1 µM [rising, single point]. As to `COc1ccccc1C(=O)NNC(=O)c1cccc(C)c1`, the cell number change amounted to 13.2%. In addition, the AC50 under setting [1] was 3.26 µM [rising, partial curve]. The AC50 under setting [2] was 29.1 µM [rising, single point]. For `CCCCCCCNC(=O)C1(CC2CC(c3ccc(Cl)cc3)=NO2)CCN(C(=O)Cc2ccc(F)cc2)CC1` (configuration not stated), the cell number change came out at 12.6%. On to `N#Cc1ccc(OCC(=O)N2CCN(C(=O)c3ccco3)CC2)cc1`, for which the cell number change came out at 8.42%. The concentration at half-maximal activity (AC50) under setting [2] was 20.6 µM [rising, single point]. Regarding `Cc1ccc(CSCCNC(=O)c2ccc(NS(C)(=O)=O)cc2)cc1`, the cell number change was -3.43%. For the same compound, under setting [2], the AC50 is 4.61 µM [falling, partial curve]. With `COc1ccc(CNC(=O)CCSc2nc(-c3ccc4c(c3)OCO4)cc(C(F)(F)F)n2)cc1`, the cell number change is -29.5%. The AC50 under setting [2] was 7.31 µM [falling, single point]. Turning to `O=C(NCc1ccco1)c1cc2ccccc2o1`, the cell number change is -8.87%. On the same count and under the same terms, the figure for `O=c1[nH]c2ccccc2[nH]c1=O` is 22.6%; for `O=C(Nc1cccc(C(=O)N2CCOCC2)c1)NC1CCCCC1` it is 2.65%.

Take `CCC(C)(C)c1ccc(Oc2ccc(NC(=O)COC(=O)C3=COCCO3)cc2)cc1`: the cell number change was -48.1%. Further, under setting [1], the AC50 was 29.1 µM [falling, single point]. Also, the half-maximal activity concentration (AC50) under setting [2] is 1.64 µM [falling, partial curve, poor fit].

`O=S(=O)(c1cccc(C(F)(F)F)c1)N1CCN(C(=S)NCc2ccco2)CC1`: the cell number change is -16.7%. Under setting [2], the AC50 is 0.0517 µM [falling, full curve]. Turning to `O=C(c1ccc(COc2ccc(Cl)cc2Cl)o1)N1CCCC1`, the cell number change was -4.05%. As for `C[C@@H]1[C@H](O)C[C@@]23COC(=O)C2=CCCC3[C@@]1(C)CCC1COC(=O)C1` (some centres not stated), the cell number change came out at 15.4%. The AC50 under setting [2] is 29.1 µM [rising, single point]. Turning to `CC(C)(C)OC(=O)NCc1ccc(CNC(=O)c2[nH]cnc2C(=O)N[C@@H](Cc2ccccc2)C(=O)OC(C)(C)C)cc1`, the cell number change was found to be 43.1%. Besides, the AC50 under setting [1] was 18.4 µM [rising, partial curve, poor fit]. Consider `COc1cccc(/C=C/C(=O)Nc2cc(S(=O)(=O)N3CCOCC3)ccc2OC)c1`, for which the AC50 under setting [1] is 2.06 µM [rising, partial curve, poor fit]. As for `CCOc1ccc(-n2c(SCC(=O)OC)nc3sc4c(c3c2=O)CCN(C)C4)cc1`, the cell number change came to 22.5%. Under setting [2], the AC50 was 0.231 µM [falling, full curve, poor fit].

On to `CCOC(=O)CN1C(=O)C(O)(CC(=O)c2ccco2)c2ccccc21` (configuration not stated), for which the cell number change stood at 9.75%. Under setting [2], the AC50 was 5.8 µM [rising, full curve, poor fit]. In the case of `CC(=O)c1ccc(NC(=O)C(C)Sc2n[nH]c(-c3cccnc3)n2)cc1` (configuration not stated), the cell number change is -3.81%. Regarding `NC(=O)Cn1nc2sc3ccccc3n2c(=O)c1=O`, the cell number change is -35.2%. In addition, the AC50 under setting [1] is 32.6 µM [falling, partial curve, poor fit].

Consider `CCOc1ccc2cc(/C=C/C(=O)c3ccco3)c(Cl)nc2c1`, for which, under setting [2], the AC50 is 2.06 µM [rising, partial curve]. In the case of `CCN(CC)c1ccc2c(C)c(-c3ccc(N)cc3)c(=O)oc2c1`, the AC50 is, setting by setting: under setting [1], 1.03 µM [rising, partial curve]; under setting [2], 0.411 µM [rising, full curve]. With `Cn1ncc2c(O/N=C(\N)c3ccc(C(F)(F)F)cc3)ncnc21`, the cell number change turned out to be 15.9%. In addition, the concentration at half-maximal activity (AC50) under setting [1] is 3.66 µM [rising, single point]. The AC50 under setting [2] is 0.731 µM [rising, full curve]. For the compound `COc1ccc(C(=O)CCC(=O)Nc2ccc(N3CCN(C)CC3)cc2)cc1OC`, the cell number change amounted to 29.5%. Further, the AC50 under setting [2] is 0.206 µM [rising, full curve, poor fit]. For `FC(F)(F)c1cccc(Cn2nnnc2-c2ccc(Cl)cc2)c1`, the cell number change was -24.9%.

On to `Cc1cccc(NC(=S)NNC(=O)c2ccc(O)cc2O)c1C`, for which the cell number change amounted to 11.3%. On the same count and under the same terms, the figure for `CCCC(=O)Nc1cc(C)c(NC(=O)C23CC4CC(CC(C4)C2)C3)cn1` is 13%. For `CCC(C)(C(=O)NC1CCCCC1)N(CC1CCCO1)C(=O)CNC(=O)c1ccccc1` (configuration not stated), the cell number change is -42.9%. For the same compound, the AC50 under setting [1] was 29.1 µM [falling, single point]. Consider `CC1(C)CC(=O)CC(C)(C)N1OC(=O)c1ccccn1`, for which the AC50 under setting [2] is 16.4 µM [falling, partial curve].

As to `CC(C)(C)C1=CC(=O)C(N2CCOCC2)=CC1=O`, the AC50 under setting [2] is 29.1 µM [falling, partial curve, poor fit].

For the compound `CCOC(=O)c1nnn(-c2nonc2N)c1CSc1ccccc1`, the cell number change turned out to be 76.4%. For the same compound, the AC50 under setting [1] was 0.731 µM [rising, full curve]. In addition, under setting [2], the AC50 is 0.82 µM [rising, partial curve]. With `CCC1Oc2ccccc2N(CC(=O)NCCC2=CCCCC2)C1=O` (configuration not stated), the cell number change was 13.5%. Under setting [2], the concentration at half-maximal activity (AC50) was 14.6 µM [rising, partial curve, poor fit]. `Cc1ncc([N+](=O)[O-])n1CCOC(=O)Nc1ccc(Cl)c(Cl)c1`: the cell number change is -25.7%. Under setting [2], the AC50 was 29.1 µM [falling, single point]. Take `CCOC(=O)c1sc2ccc(S(=O)(=O)N3CC(C)CC(C)C3)cc2c1N` (configuration not stated): the cell number change amounted to 41.6%. Also, under setting [1], the half-maximal activity concentration (AC50) is 3.66 µM [rising, full curve]. Moreover, under setting [2], the AC50 is 4.11 µM [rising, single point]. With `Cc1nc(SCc2ccc([N+](=O)[O-])cc2)n[nH]1`, the cell number change amounted to 16.1%. Take `CN(C)S(=O)(=O)N1CCC(Oc2cccc(C(=O)NC3CCOC3)c2)CC1` (configuration not stated): the cell number change was 11.1%. Moreover, the AC50 under setting [2] is 29.1 µM [rising, single point]. Take `CCOC(=O)c1sc(NC(=O)c2ccncc2)c(C#N)c1C`: the cell number change stood at 23.4%. Moreover, the AC50 under setting [2] is 0.291 µM [rising, full curve].
